Results are given in words; binding and its absence hold for the method and conditions named. Some entries that bind do so weakly or less than the wild type.
Target: Human PPARγ-LBD (isoform 1; amino acids 203–477) (human) (UniProt P37231)
Assay: FRET or BRET; same cell-free TR-FRET coactivator recruitment; with 14 long-chain fatty acids (C12:0–C22:6) or 15d-PGJ2 (in ethanol), concentration series; response as percent of the maximal response with 1 µM GW full agonist; both purified

The chains behind the UniProt entries cited, without tags or fusion partners. Residues count along the entry.
UniProt P37231, residues 231-505: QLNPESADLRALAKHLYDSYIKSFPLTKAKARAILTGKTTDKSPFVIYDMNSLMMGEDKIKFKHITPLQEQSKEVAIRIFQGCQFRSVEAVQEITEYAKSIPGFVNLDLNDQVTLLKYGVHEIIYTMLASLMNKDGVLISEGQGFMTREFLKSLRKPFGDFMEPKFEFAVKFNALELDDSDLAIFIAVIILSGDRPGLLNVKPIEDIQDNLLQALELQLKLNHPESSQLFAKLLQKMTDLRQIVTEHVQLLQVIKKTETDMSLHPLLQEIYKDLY

binding	Binder
binds weakly	SGNLVPDAASKHKQLSELLRGGSGS (biotin-labeled (position not given)) [CBP coactivator peptide, AAs 56–80]
binds weakly	PVSSMAGNTKNHPMLMNLLKDNPAQ (biotin-labeled (position not given)) [TRAP220 coactivator peptide, AAs 631–655]
